Experimental data published in patent US20100297123A1, “COMBINATION THERAPY TO INHIBIT T CELL EFFECTOR FUNCTION” (priority 2009, published 2010).
“Also recorded” adds a separate entry of the source. At least one structure is not confirmed: it was looked up by name or label, or the drawing left a doubt.

Legend:
effector CD4 T cells [1] = assay: CFSE proliferation assay of mouse effector CD4 T cells; format: cell-based; conditions: effector CD4 T cells stimulated with anti-CD3/28 and drug(s), FIG. 12B
Protocol: Proliferation and cell division assays. Cells cultured in 96-well U-bottom plate wells were pulsed with 1 μCi of methyl-[^3H]thymidine (Amersham Biosciences) for 6 h during the last 72 h of stimulation and harvested onto filters (Wallac). Filters were wetted with Betaplate Scintillation fluid (PerkinElmer) and counts per minute read on a 1205 Betaplate Liquid Scintillation Counter (Wallac). For CFSE experiments, cells were labeled with 1 μM CFDA-SE (Sigma-Aldrich) in serum free RPMI 1640 medium for 10 min and washed twice before culturing. CFSE-labeled cells were assayed after 72 h of culture.
GRAIL is expressed during quiescence, lost upon activation. Naïve CD4 T cells were isolated from mouse and stimulated with anti-CD3 and anti-CD28 antibodies in vitro for the indicated number of hours (FIG. 10). Protein was collected and run by Western blot probing for GRAIL and β-actin. Effector CD4 T cells were made by first isolating from naïve mice, then stimulating with anti-CD3/28 for 3 days, split off and rested for 2 more days, then washed and put in fresh media for 2 additional days. […]
Shown in FIG. 12A, naïve CD4 T cells were labeled with CFSE, a dye that dilutes out with successive cell divisions. The naïve CD4 T cells were stimulated with anti-CD3/28 and the indicated drug(s) and CFSE profiles assessed after 3 days. […]

[2] = tested on: STAT5 phosphorylation (Tyr694/699); assay: Phospho-STAT5 immunoblot, mouse naive CD4 T cells; format: cell-based; conditions: 48 h anti-CD3/28 bead stimulation, rapamycin plus exogenous IL-2
Kip1/p27 = Kip1/p27 immunoblot, human naive CD4 T cells; format: cell-based; conditions: 48 h stimulation (anti-CD3/APC for CTLA4-Ig; anti-CD3/28 for rapamycin)
[3] = tested on: Akt phosphorylation (Ser473); assay: Phospho-Akt immunoblot, human naive CD4 T cells; format: cell-based; conditions: 48 h stimulation (anti-CD3/APC for CTLA4-Ig; anti-CD3/28 for rapamycin)
[4] = tested on: STAT5 phosphorylation (Tyr694/699); assay: Phospho-STAT5 immunoblot, human naive CD4 T cells; format: cell-based; conditions: 48 h stimulation (anti-CD3/APC for CTLA4-Ig; anti-CD3/28 for rapamycin)
cyclin D3 [5] = assay: Cyclin D3 immunoblot, mouse naive CD4 T cells; format: cell-based; conditions: 48 h anti-CD3/28 bead stimulation
IL-2 mRNA = assay: Real-time quantitative PCR of IL-2 mRNA, mouse naive CD4 T cells; format: cell-based; conditions: 24 h anti-CD3/28 bead stimulation, normalized to β-actin
CD25 (IL-2Rα) = assay: CD25 cell surface staining by flow cytometry, mouse naive CD4 T cells; format: cell-based; conditions: 24 h anti-CD3/28 bead stimulation
mouse naive CD4 T cells [6] = assay: Proliferation assay ([3H]thymidine) of mouse naive CD4 T cells; format: cell-based; conditions: anti-CD3/28 bead stimulation
effector CD4 T cells [7] = assay: Standard proliferation assay of mouse effector CD4 T cells; format: cell-based; conditions: previously activated and rested effector CD4 T cells, FIG. 11
Cyclin D3 [8] = assay: Cyclin D3 immunoblot, human naive CD4 T cells; format: cell-based; conditions: 48 h stimulation (anti-CD3/APC for CTLA4-Ig; anti-CD3/28 for rapamycin)
p27/Kip1 = assay: Kip1/p27 immunoblot, mouse naive CD4 T cells; format: cell-based; conditions: 48 h anti-CD3/28 bead stimulation
Otub1 [9] = assay: Otub1 immunoblot, mouse naive CD4 T cells; format: cell-based; conditions: 48 h anti-CD3/28 bead stimulation
Otub1 [10] = assay: Otub1 immunoblot, human naive CD4 T cells; format: cell-based; conditions: 48 h stimulation (anti-CD3/APC for CTLA4-Ig; anti-CD3/28 for rapamycin)
GRAIL mRNA = assay: Real-time quantitative PCR of GRAIL mRNA, mouse naive CD4 T cells; format: cell-based; conditions: 24 h anti-CD3/28 bead stimulation, normalized to β-actin
GRAIL [11] = assay: GRAIL western blot of effector CD4 T cells; format: cell-based, mouse; conditions: effector CD4 T cells stimulated with anti-CD3/28, western blot, FIG. 12C
Protocol: Immunoblots. Whole-cell lysates were made using lysis buffer consisting of 0.5% Nonidet P-40, 100 mM sodium chloride, 0.5 mM EDTA, 20 mM Tris (pH 7.6-8.0), with protease inhibitor mixture (Pierce) and phosphatase inhibitor mixture (Pierce). Protein samples were loaded on 4-15% Tris-HCl gels (Bio-Rad) and separated by SDS-PAGE. Protein was transferred from gel to Immobolin-P polyvinylidene difluoride membrane (Millipore) using Trans-Blot SD Semidry Transfer Apparatus (Bio-Rad) following the manufacturer's instructions. StartingBlock (Tris-buffered saline with 0.05% Tween 20) (Pierce) was used to block membranes and was also used during primary and secondary Ab staining. Secondary Abs were all HRP conjugated (Zymed Laboratories). ECL Plus Western Blotting Reagents (GE Healthcare) were used for chemiluminescent detection of protein. Chemiluminescence signal was exposed onto Amersham Hyperfilm ECL (GE Healthcare). Membranes were stripped using Restore Western Blot Stripping Buffer (Pierce). Densitometry was performed using ImageJ software (National Institutes of Health). […]

GRAIL [12] = assay: GRAIL immunoblot, human naive CD4 T cells; format: cell-based; conditions: 48 h stimulation (anti-CD3/APC for CTLA4-Ig; anti-CD3/28 for rapamycin)
[13] = tested on: Akt phosphorylation (Ser473); assay: Phospho-Akt immunoblot, mouse naive CD4 T cells; format: cell-based; conditions: 48 h anti-CD3/28 bead stimulation, rapamycin plus exogenous IL-2
Otub1 mRNA = assay: Real-time quantitative PCR of Otub1 mRNA, mouse naive CD4 T cells; format: cell-based; conditions: 24 h anti-CD3/28 bead stimulation, normalized to β-actin
[14] = tested on: human naive CD4+ CD45RA+ T cells; assay: Proliferation assay of human naive CD4+CD45RA+ T cells; format: cell-based; conditions: anti-CD3/APC stimulation for CTLA4-Ig 10 μg/ml; anti-CD3/28 beads for rapamycin 100 nM
mouse naive CD4 T cells [15] = assay: CFSE cell division assay of mouse naive CD4 T cells; format: cell-based; conditions: anti-CD3/28 stimulation, CFSE profiles after 3 days
GRAIL [16] = assay: GRAIL immunoblot, mouse naive CD4 T cells; format: cell-based; conditions: 48 h anti-CD3/28 bead stimulation
IL-2 = IL-2 ELISA of supernatants, mouse naive CD4 T cells; format: cell-based; conditions: supernatant after 24 h anti-CD3/28 bead stimulation

O=c1cc(N2CCOCC2)oc2c(-c3ccccc3)cccc12 [LY294002]
proliferation of effector CD4 T cells (CFSE) (effector CD4 T cells [1]): effective

CO[C@H]1C[C@@H]2CC[C@@H](C)[C@@](O)(O2)C(=O)C(=O)N2CCCC[C@H]2C(=O)O[C@H]([C@H](C)C[C@@H]2CC[C@@H](O)[C@H](OC)C2)CC(=O)[C@H](C)/C=C(\C)[C@@H](O)[C@@H](OC)C(=O)[C@H](C)C[C@H](C)/C=C/C=C/C=C/1C [rapamycin]
phosphorylation of STAT5 with exogenous IL-2 added [2]: did not inhibit phosphorylation of STAT5 or Akt
Kip1/p27 level (Kip1/p27): increased Kip1/p27 levels
phosphorylation of Akt [3]: did not affect the phosphorylation of STAT5 or Akt
phosphorylation of STAT5 [4]: did not affect the phosphorylation of STAT5 or Akt
cyclin D3 expression (cyclin D3 [5]): diminished
IL-2 mRNA level (IL-2 mRNA): decreased IL-2 mRNA levels
CD25 (IL-2Rα) cell surface expression (CD25 (IL-2Rα)): increased to similar levels when stimulated in the presence or absence of rapamycin
CD4 T cell proliferation with exogenous IL-2 added (mouse naive CD4 T cells [6]; rapamycin 100 nM plus exogenous IL-2 at start of activation): did not overcome the rapamycin induced inhibition of cell proliferation
CD4 T cell proliferation (counts per minute) (mouse naive CD4 T cells [6]; rapamycin 100 nM, anti-IL-2 Ab 10 μg/ml): inhibited proliferation; also recorded: could be inhibited
proliferation of effector CD4 T cells (standard proliferation assay) (effector CD4 T cells [7]): are not
Cyclin D3 level (Cyclin D3 [8]): decreased Cyclin D3
p27/Kip1 expression (p27/Kip1): increased
Otub1 protein expression (Otub1 [9]): Otub1 protein is not expressed
Otub1 protein expression with exogenous IL-2 added (Otub1 [9]; rapamycin plus exogenous IL-2): reduced Otub1 protein
Otub1 protein expression (Otub1 [10]): failed to up-regulate Otub1 protein
GRAIL mRNA level (GRAIL mRNA): decreased regardless of the absence or presence of rapamycin
GRAIL retention in effector CD4 T cells (GRAIL [11]): does not lead to GRAIL retention
GRAIL protein expression (GRAIL [12]): maintained GRAIL expression
phosphorylation of Akt with exogenous IL-2 added [13]: did not inhibit phosphorylation of STAT5 or Akt
Otub1 mRNA level (Otub1 mRNA): increased the level of Otub1 mRNA with or without the addition of rapamycin
proliferation of human naive CD4+ CD45RA+ T cells [14]: inhibited human naïve CD4 T cell proliferation
cell division / proliferation by CFSE dilution (mouse naive CD4 T cells [15]): inhibited
cell division / proliferation by CFSE dilution (mouse naive CD4 T cells [15]; listed as Rapamycin): inhibits proliferation
proliferation of effector CD4 T cells (CFSE) (effector CD4 T cells [1]): does not inhibit proliferation
GRAIL protein expression (GRAIL [16]): GRAIL to be maintained
GRAIL protein expression with exogenous IL-2 added (GRAIL [16]; rapamycin plus exogenous IL-2): maintenance of GRAIL
IL-2 production (ELISA) (IL-2): decreased
